The M2OR odorant receptor database
Residue numbers refer to the chain shown, from its start. Only a part is listed here, and it is no random draw. The calls were merged from several studies; some rest on single wells. The list shows a part of the results.

Chains of the proteins cited; added tags and fusions are not shown. Lines headed by an entry give the natural chain unless they say otherwise; changes in a name come on top. A line that says so, or that is headed by a name, gives the form on record, which may keep a tag or linker.
UniProt Q8NHA4: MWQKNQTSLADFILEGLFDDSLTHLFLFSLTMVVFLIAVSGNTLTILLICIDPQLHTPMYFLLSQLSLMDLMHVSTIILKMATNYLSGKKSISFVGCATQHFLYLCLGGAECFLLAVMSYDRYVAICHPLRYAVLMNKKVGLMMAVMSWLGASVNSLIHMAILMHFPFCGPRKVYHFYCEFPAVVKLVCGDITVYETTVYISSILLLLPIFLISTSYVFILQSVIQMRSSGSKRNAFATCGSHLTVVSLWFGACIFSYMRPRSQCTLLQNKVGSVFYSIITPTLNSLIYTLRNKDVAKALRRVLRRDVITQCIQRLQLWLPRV
UniProt Q8NGZ0: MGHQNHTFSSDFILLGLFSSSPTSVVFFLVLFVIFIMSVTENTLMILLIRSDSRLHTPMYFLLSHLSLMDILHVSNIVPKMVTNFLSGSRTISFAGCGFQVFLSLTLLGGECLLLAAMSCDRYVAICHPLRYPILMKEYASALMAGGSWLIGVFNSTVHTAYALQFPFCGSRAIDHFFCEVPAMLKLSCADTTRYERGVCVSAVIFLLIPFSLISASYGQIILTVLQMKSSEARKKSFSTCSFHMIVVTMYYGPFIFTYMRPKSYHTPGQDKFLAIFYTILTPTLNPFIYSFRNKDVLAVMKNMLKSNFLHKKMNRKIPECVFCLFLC
UniProt Q8NG84: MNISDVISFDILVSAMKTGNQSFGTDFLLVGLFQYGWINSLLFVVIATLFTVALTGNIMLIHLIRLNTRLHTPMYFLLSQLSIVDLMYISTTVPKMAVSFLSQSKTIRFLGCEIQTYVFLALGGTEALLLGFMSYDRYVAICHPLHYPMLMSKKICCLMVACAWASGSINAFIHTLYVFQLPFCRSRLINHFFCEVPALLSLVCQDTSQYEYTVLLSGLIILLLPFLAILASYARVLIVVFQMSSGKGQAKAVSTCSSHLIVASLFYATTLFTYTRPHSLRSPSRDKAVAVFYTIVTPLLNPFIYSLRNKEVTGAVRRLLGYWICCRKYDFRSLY
UniProt Q8N628: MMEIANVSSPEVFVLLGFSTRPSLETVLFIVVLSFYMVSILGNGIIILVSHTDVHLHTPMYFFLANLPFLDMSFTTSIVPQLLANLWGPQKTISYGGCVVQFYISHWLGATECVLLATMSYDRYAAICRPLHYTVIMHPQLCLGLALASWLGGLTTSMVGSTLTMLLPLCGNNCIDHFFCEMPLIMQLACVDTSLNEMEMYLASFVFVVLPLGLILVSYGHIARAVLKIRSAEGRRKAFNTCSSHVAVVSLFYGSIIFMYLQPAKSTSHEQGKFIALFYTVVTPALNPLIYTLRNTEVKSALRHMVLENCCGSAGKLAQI
OR2C1, as listed by the source: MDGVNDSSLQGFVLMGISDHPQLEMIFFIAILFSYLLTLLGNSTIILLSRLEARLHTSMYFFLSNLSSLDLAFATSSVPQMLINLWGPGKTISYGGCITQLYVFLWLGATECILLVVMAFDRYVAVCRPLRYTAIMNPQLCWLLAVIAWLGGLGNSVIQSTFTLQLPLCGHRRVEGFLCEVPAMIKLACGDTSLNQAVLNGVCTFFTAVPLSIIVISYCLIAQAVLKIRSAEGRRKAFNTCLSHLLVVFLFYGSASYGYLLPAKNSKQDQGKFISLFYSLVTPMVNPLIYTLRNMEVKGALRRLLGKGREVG

Columns and labels:
Details in all cases: stereoisomer not certain
[1] = target: T1, OR2AG1 (Homo sapiens) (UniProt Q9H205)
T1 sequence (whole entry): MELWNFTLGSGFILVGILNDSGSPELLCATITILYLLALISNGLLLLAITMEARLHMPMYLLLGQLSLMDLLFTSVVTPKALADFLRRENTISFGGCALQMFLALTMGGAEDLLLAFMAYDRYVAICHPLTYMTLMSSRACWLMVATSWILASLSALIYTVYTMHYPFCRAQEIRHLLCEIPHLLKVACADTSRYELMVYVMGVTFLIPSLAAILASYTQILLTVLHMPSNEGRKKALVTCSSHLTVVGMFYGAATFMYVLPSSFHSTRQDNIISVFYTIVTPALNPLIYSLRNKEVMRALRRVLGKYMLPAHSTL
Summary of the method: (§1)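 Values were gathered from published papers (main text and supplementary material), with extra details requested from the original authors when needed, and checked for typos and inconsistencies. Each receptor–molecule pair is called responsive (active) if the original authors judged the measured signal statistically different from baseline, and non-responsive (inactive) otherwise. Assay methods varied by source, often transient mammalian cell-line luciferase assays. Recorded details include cell line, G-protein, co-transfected protein and tags.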

[2] = target: T2, OR2AG2 (Homo sapiens) (UniProt A6NM03)
T2 sequence (whole entry): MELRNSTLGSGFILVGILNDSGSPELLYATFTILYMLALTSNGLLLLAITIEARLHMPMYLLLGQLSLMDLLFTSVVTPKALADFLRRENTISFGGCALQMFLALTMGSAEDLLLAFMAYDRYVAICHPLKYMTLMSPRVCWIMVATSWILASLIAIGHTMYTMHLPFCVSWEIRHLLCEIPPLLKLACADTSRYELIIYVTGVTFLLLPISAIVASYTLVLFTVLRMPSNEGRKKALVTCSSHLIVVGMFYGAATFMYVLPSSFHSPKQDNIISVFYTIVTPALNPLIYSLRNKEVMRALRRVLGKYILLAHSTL
Summary of the method: as §1

[3] = target: T3, OR2AP1 (Homo sapiens) (UniProt Q8NGE2)
T3 sequence (whole entry): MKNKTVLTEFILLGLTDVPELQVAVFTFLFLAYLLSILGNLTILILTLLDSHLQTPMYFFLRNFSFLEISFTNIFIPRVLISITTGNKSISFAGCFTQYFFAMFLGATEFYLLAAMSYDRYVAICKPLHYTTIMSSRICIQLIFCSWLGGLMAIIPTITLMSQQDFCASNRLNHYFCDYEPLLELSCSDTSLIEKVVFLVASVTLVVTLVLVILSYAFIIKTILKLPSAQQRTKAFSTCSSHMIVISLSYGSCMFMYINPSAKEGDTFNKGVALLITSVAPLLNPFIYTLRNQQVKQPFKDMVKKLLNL
Summary of the method: as §1

[4] = target: T4, OR2AT4 (Homo sapiens) (UniProt A6NND4)
T4 sequence (whole entry): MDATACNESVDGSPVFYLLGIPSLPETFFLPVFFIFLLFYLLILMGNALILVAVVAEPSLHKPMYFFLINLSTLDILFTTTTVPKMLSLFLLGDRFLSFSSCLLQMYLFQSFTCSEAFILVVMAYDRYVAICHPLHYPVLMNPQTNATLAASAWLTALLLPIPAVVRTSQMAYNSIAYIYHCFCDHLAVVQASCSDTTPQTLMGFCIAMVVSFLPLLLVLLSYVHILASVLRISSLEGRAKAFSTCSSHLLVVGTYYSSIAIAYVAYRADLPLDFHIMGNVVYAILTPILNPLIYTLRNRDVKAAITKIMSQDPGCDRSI
Summary of the method: as §1

[5] = target: T5, OR2B11 (Homo sapiens) (UniProt Q5JQS5)
T5 sequence (whole entry): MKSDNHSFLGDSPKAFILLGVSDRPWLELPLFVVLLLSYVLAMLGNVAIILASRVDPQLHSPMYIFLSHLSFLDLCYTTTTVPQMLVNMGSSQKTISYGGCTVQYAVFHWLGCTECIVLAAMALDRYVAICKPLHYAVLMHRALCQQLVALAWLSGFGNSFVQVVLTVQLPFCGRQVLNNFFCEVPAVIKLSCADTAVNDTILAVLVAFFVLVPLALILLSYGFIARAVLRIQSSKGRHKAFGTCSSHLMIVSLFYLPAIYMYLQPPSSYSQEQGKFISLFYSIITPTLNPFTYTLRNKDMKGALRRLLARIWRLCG
Summary of the method: as §1

[6] = target: T6, OR2B2 (Homo sapiens) (UniProt Q9GZK3)
T6 sequence (whole entry): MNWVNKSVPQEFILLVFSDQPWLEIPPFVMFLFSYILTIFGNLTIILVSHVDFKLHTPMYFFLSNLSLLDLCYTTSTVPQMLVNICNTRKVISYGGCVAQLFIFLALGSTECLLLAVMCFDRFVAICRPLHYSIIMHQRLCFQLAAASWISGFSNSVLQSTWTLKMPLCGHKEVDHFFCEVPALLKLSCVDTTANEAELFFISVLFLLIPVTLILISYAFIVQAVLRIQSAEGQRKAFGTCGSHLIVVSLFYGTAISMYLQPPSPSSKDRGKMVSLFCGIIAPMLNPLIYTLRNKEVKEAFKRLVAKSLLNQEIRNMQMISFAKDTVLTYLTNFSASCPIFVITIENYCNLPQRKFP
Summary of the method: as §1

[7] = target: T7, OR2B3 (Homo sapiens) (UniProt O76000)
T7 sequence (whole entry): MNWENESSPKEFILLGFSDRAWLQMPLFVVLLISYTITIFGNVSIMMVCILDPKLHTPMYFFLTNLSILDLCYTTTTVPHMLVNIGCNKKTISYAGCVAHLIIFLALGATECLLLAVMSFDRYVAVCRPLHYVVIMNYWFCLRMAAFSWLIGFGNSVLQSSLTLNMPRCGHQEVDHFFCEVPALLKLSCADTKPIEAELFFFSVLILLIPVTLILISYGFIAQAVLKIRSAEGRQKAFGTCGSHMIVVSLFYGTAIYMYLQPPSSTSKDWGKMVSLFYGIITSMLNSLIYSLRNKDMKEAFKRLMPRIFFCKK
Summary of the method: as §1

[8] = target: T8, OR2B6 (Homo sapiens) (UniProt P58173)
T8 sequence (whole entry): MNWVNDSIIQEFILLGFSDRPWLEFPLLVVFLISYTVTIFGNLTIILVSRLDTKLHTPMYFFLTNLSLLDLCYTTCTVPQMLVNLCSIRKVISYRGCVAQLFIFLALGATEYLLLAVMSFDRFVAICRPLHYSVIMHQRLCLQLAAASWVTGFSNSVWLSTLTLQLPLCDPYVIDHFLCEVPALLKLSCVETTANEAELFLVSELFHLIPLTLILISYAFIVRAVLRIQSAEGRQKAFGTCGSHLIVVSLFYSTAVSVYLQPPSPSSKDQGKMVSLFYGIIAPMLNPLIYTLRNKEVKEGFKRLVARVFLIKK
Summary of the method: as §1

[9] = test system: T9, OR2B8
T9 sequence (whole entry): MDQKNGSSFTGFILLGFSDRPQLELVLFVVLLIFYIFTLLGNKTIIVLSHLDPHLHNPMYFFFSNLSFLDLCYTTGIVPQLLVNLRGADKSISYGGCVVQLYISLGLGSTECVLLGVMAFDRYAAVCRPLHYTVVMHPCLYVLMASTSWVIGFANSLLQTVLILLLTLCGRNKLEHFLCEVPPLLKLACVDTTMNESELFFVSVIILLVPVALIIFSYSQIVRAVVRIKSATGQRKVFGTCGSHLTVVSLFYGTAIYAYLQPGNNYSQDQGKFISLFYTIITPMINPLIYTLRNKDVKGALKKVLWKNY
Summary of the method: as §1

[10] = test system: T10, OR2C1
T10 sequence (whole entry): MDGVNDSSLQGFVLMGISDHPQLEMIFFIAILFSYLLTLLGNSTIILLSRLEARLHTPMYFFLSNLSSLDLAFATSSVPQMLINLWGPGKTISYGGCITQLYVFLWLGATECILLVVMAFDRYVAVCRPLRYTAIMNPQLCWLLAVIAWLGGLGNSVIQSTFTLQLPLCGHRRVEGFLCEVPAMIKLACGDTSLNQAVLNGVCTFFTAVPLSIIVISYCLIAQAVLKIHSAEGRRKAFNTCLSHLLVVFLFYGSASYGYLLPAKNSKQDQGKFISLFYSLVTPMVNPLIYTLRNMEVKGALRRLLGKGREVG
Summary of the method: as §1

[11] = test system: T11, OR2C1; remark: listed apart in the source
T11 sequence (whole entry): T10 sequence (whole entry) with H229R
Summary of the method: as §1

[12] = test system: T12, OR2C1; remark: listed apart in the source
T12 sequence (whole entry): T10 sequence (whole entry) with P58S, H229R
Summary of the method: as §1

[13] = test system: T13, OR2C1; remark: listed apart in the source
T13 sequence (whole entry): T10 sequence (whole entry) with G16S
Summary of the method: as §1

[14] = test system: T14, OR2C1; remark: listed apart in the source
T14 sequence (whole entry): T10 sequence (whole entry) with G16S, H229R
Summary of the method: as §1

[15] = target: T15, OR2C1 (Homo sapiens) (UniProt O95371)
T15 sequence (whole entry): T10 sequence (whole entry) with W149C, H229R
Summary of the method: as §1

[16] = target: OR2AE1 (Homo sapiens) (UniProt Q8NHA4)
Summary of the method: as §1

[17] = target: OR2AJ1 (Homo sapiens) (UniProt Q8NGZ0)
Summary of the method: as §1

[18] = target: OR2AK2 (Homo sapiens) (UniProt Q8NG84)
Summary of the method: as §1

[19] = target: OR2C3 (Homo sapiens) (UniProt Q8N628)
Summary of the method: as §1

Compound	odorant receptor agonist call [1]	odorant receptor agonist call [2]	odorant receptor agonist call [3]	odorant receptor agonist call [4]	odorant receptor agonist call [5]	odorant receptor agonist call [6]	odorant receptor agonist call [7]	odorant receptor agonist call [8]	odorant receptor agonist call [9]	odorant receptor agonist call [10]	odorant receptor agonist call [11]	odorant receptor agonist call [12]	odorant receptor agonist call [13]	odorant receptor agonist call [14]	odorant receptor agonist call [15]	odorant receptor agonist call [16]	odorant receptor agonist call [17]	odorant receptor agonist call [18]	odorant receptor agonist call [19]
CC(=O)C(C)=O	inactive	inactive	inactive	inactive	inactive	inactive	inactive	inactive	inactive	inactive	inactive	inactive	inactive	inactive	–	–	–	–	–
CC1COCc2cc3c(cc21)C(C)(C)C(C)C3(C)C (configuration not stated)	active	active	active	active	active	active	active	active	inactive	active	inactive	active	active	active	–	–	–	–	–
CC1=CCC(C(C)(C)O)CC1 (configuration not stated)	inactive	inactive	inactive	inactive	inactive	inactive	inactive	inactive	inactive	inactive	inactive	inactive	inactive	inactive	–	–	–	–	–
COc1ccccc1O	inactive	inactive	inactive	inactive	inactive	inactive	inactive	inactive	inactive	inactive	inactive	inactive	inactive	inactive	–	–	–	–	–
O=C1CCCCC1	inactive	inactive	inactive	inactive	inactive	inactive	inactive	inactive	inactive	inactive	inactive	inactive	inactive	inactive	inactive	–	–	–	–
CC(=O)OCC=C(C)CCC=C(C)C	inactive	inactive	inactive	inactive	inactive	inactive	inactive	inactive	inactive	inactive	inactive	inactive	inactive	inactive	–	–	–	–	–
CC12CCC(C1)C(C)(C)C2=O (configuration not stated)	inactive	inactive	inactive	inactive	inactive	inactive	inactive	inactive	inactive	inactive	inactive	inactive	inactive	inactive	inactive	–	–	–	–
CC(=O)c1ccccc1	inactive	inactive	inactive	inactive	inactive	inactive	inactive	inactive	inactive	inactive	active	inactive	inactive	inactive	inactive	–	–	–	–
CC=Cc1ccc(O)c(OC)c1	inactive	inactive	inactive	active	inactive	inactive	inactive	inactive	inactive	inactive	inactive	active	active	active	–	–	–	–	–
CC(C)=CCCC(C)=CC=O	inactive	inactive	inactive	inactive	inactive	inactive	inactive	inactive	inactive	inactive	inactive	inactive	inactive	inactive	–	–	–	–	–
CCCCCCCC=O	inactive	inactive	inactive	inactive	inactive	inactive	inactive	inactive	inactive	inactive	inactive	inactive	inactive	inactive	inactive	–	–	–	–
C=CC(C)(O)CCC=C(C)C (configuration not stated)	inactive	inactive	inactive	inactive	inactive	inactive	inactive	inactive	inactive	inactive	inactive	inactive	inactive	inactive	–	–	–	–	–
CCCCCC(C)=O	inactive	inactive	inactive	inactive	inactive	inactive	inactive	inactive	inactive	inactive	active	inactive	inactive	inactive	inactive	–	–	–	–
CCCCCCCOC(C)=O	inactive	inactive	inactive	inactive	inactive	inactive	inactive	inactive	inactive	inactive	inactive	inactive	inactive	inactive	–	–	–	–	–
COC(=O)c1ccccc1O	inactive	inactive	inactive	inactive	inactive	inactive	inactive	inactive	inactive	inactive	inactive	inactive	inactive	inactive	–	–	–	–	–
CCCCCC(=O)O	inactive	inactive	inactive	inactive	inactive	inactive	inactive	inactive	inactive	inactive	inactive	inactive	inactive	inactive	inactive	–	–	–	–
CCC1(O)C2(C)CCC(C2)C1(C)C (configuration not stated)	inactive	inactive	inactive	inactive	inactive	inactive	inactive	inactive	inactive	inactive	inactive	inactive	inactive	inactive	–	–	–	–	–
CCCCCCCC=CC=O	inactive	inactive	inactive	inactive	inactive	inactive	inactive	inactive	inactive	inactive	inactive	inactive	inactive	active	–	–	–	–	–
CCCCCCCCCC=O	inactive	inactive	inactive	inactive	inactive	inactive	inactive	inactive	inactive	inactive	inactive	inactive	inactive	inactive	inactive	–	–	–	–
CC(C)C(=O)O	inactive	inactive	inactive	inactive	inactive	inactive	inactive	inactive	inactive	inactive	inactive	inactive	inactive	inactive	–	–	–	–	–
CCCCCCCCOC(C)=O	inactive	inactive	inactive	inactive	inactive	inactive	inactive	inactive	inactive	inactive	inactive	inactive	inactive	inactive	–	–	–	–	–
CC1=NC(C)SC1C (configuration not stated)	inactive	inactive	inactive	inactive	inactive	inactive	inactive	inactive	inactive	inactive	inactive	inactive	inactive	inactive	–	–	–	–	–
C=CCSCC=C	inactive	inactive	inactive	inactive	inactive	inactive	inactive	inactive	inactive	inactive	inactive	inactive	inactive	inactive	–	–	–	–	–
CC12C=CCC1C1CCC3CC(=O)CCC3(C)C1CC2 (configuration not stated)	inactive	inactive	inactive	inactive	inactive	inactive	inactive	inactive	inactive	inactive	inactive	active	inactive	inactive	–	inactive	inactive	inactive	inactive

Record cards, from the list above. Order of values: odorant receptor agonist call [1] | odorant receptor agonist call [2] | odorant receptor agonist call [3] | odorant receptor agonist call [4] | odorant receptor agonist call [5] | odorant receptor agonist call [6] | odorant receptor agonist call [7] | odorant receptor agonist call [8] | odorant receptor agonist call [9] | odorant receptor agonist call [10] | odorant receptor agonist call [11] | odorant receptor agonist call [12] | odorant receptor agonist call [13] | odorant receptor agonist call [14] | odorant receptor agonist call [15] | odorant receptor agonist call [16] | odorant receptor agonist call [17] | odorant receptor agonist call [18] | odorant receptor agonist call [19]
C=CC(C)(O)CCC=C(C)C (configuration not stated) reads inactive | inactive | inactive | inactive | inactive | inactive | inactive | inactive | inactive | inactive | inactive | inactive | inactive | inactive | – | – | – | – | –
COC(=O)c1ccccc1O reads inactive | inactive | inactive | inactive | inactive | inactive | inactive | inactive | inactive | inactive | inactive | inactive | inactive | inactive | – | – | – | – | –
